# The list shows a part of the results. Shown are side measurements of this screen, not its main read-out; they come without a call. Compounds called inactive in the main read-out are mostly missing here. Potencies come from curve fits of mixed quality, noted in brackets.
# Assay: IkB Signaling
# Settings: ABC-DLBCL IkBa-CBG/CBR dual luciferase ratio (green luciferase fused to IkBa over red control in OCI-Ly3 lymphoma cells), 4 h
# How it was run: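 In this assay, an IκBα–CBG68 fusion accumulates when IKK-driven degradation is blocked; native CBR normalizes for cell number. OCI-Ly3 cells were treated 4 h with compound and doxycycline, then green and red light read after Chroma-Glo addition.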
# [1] = measured here: control luc red channel unless noted
compound,measurement,setting,value
Cc1ccc(-c2csc3nnc(SCC(=O)Nc4cccc(C)n4)n23)cc1,AC50,[1],"15.8 µM [falling, partial curve]"
COc1ccc(C(=O)OCc2cc(=O)n3nc(-c4cccs4)sc3n2)cc1,AC50,[1],"15.8 µM [falling, partial curve]"
CCC(Cn1nnc2ccccc2c1=O)NC(=O)Nc1cccc(C)c1C (stereo not drawn),AC50,[1],"39.8 µM [falling, single point]"
CCOc1ccc2oc(-c3ccccc3)c(C(=O)O)c2c1,AC50,[1],"25.1 µM [falling, single point]"
O=[N+]([O-])c1cc(-c2nc(-c3ccccc3)no2)ccc1N1CCCCC1,AC50,[1],"3.98 µM [rising, partial curve]"
Cc1ccc(NC(=O)C2CCCN(c3nnc(C)c4c(C)n(-c5ccccc5)nc34)C2)c(Cl)c1 (stereo not drawn),AC50,[1],"31.6 µM [falling, single point]"
CCC(=O)N1CCc2cc(Br)cc(S(=O)(=O)CCC(=O)N3CCN(c4cccc(C(F)(F)F)c4)CC3)c21,AC50,[1],"3.16 µM [falling, full curve]"
c1ccc(C(c2nnnn2Cc2ccco2)N2CCN(C3CCCC3)CC2)cc1 (stereo not drawn),AC50,[1],"15.8 µM [falling, partial curve]"
CC(C)Cn1c(N)c(S(=O)(=O)c2cccs2)c2nc3ccccc3nc21,AC50,[1],"12.6 µM [falling, partial curve]"
Cc1nn(Cc2ccc(F)cc2)c(C)c1NC(=O)c1noc2c1CCCCC2,AC50,[1],"15.8 µM [falling, partial curve]"
Cc1ccccc1NC(=O)Cn1c(SCC(=O)Nc2ccc(F)cc2)nc2ccccc21,AC50,[1],"6.31 µM [falling, partial curve]"
Cc1ccc(CNC(=O)Cc2c(C)c3cc4c(C)coc4cc3oc2=O)cc1,AC50,[1],"3.16 µM [falling, full curve, poor fit]"
CCCOc1ccccc1C1CC(=O)Nc2cc3c(cc21)OCO3 (stereo not drawn),AC50,[1],"10 µM [falling, partial curve]"
CCn1c(SCC(=O)Nc2ccc(OCc3ccccc3)cc2)nnc1-c1ccco1,AC50,[1],"12.6 µM [falling, partial curve]"
CCOC(=O)c1ccc(N2CCN(c3cccc(OC)c3)CC2)c(NC(=O)Nc2ccc(OCC)cc2)c1,AC50,[1],"25.1 µM [rising, partial curve]"
Cc1cc(Nc2ccc(C)c(Cl)c2)n2nc(Cc3ccccc3)nc2n1,AC50,[1],"12.6 µM [falling, partial curve]"
Cc1cc(C)n2cc(CSc3nnnn3-c3ccccc3)nc2n1,AC50,[1],"6.31 µM [falling, partial curve]"
COCCn1c(=O)[nH]c2cc(C(=O)NCc3ccccc3Cl)ccc2c1=O,AC50,[1],"6.31 µM [falling, full curve]"
COc1ccccc1-c1cc(C(F)(F)F)nc(S(=O)(=O)CCCC(=O)N2CCOCC2)n1,AC50,[1],"1.26 µM [falling, full curve]"
O=C(Cn1c(=O)ccc2cc(S(=O)(=O)N3CCCC3)ccc21)NCc1ccc(Cl)cc1,AC50,[1],"0.1 µM [falling, full curve, poor fit]"
O=C(c1ccc(Cl)cc1)N1CCC(c2ccncc2)CC1,AC50,[1],"3.98 µM [rising, partial curve]"
Cn1nnnc1Sc1nc(-c2cccnc2)nc2ccccc12,AC50,[1],"5.01 µM [falling, full curve]"
CCN(CC)S(=O)(=O)c1ccc2nc(NC(=O)c3cccnc3)sc2c1,AC50,[1],"39.8 µM [falling, single point]"
Cc1ccc(NC(=O)CSc2nnc(COc3ccc(C#N)cc3)n2-c2ccccc2)cc1C,AC50,[1],"10 µM [falling, partial curve]"
CCC(CO)NC(=O)C(=O)Nc1c2c(nn1-c1ccc(F)cc1)CSC2 (stereo not drawn),AC50,measured here: IkB-luc green channel,"3.98 µM [rising, single point]"
same,AC50,measured here: control luc red channel,"7.94 µM [rising, partial curve]"
CC(=O)Nc1cccc(NC(=O)CN2C(=O)CCSc3ccccc32)c1,AC50,[1],"15.8 µM [falling, single point]"
Cc1cccc2sc(NC(=O)CN(C)S(=O)(=O)c3cccs3)nc12,AC50,[1],"12.6 µM [falling, partial curve]"
COc1ccc(OC)c(C(c2nnnn2C2CCCC2)N2CCc3ccccc3C2)c1 (stereo not drawn),AC50,[1],"31.6 µM [falling, single point]"
Cc1nc2nc(NC(=O)c3ccccc3F)[nH]n2c(=O)c1Cl,AC50,[1],"12.6 µM [falling, partial curve]"
COc1ccc(C2C=C(c3cccc(OC)c3)Nc3c(C(=O)Nc4ccccc4)cnn32)cc1 (stereo not drawn),AC50,[1],"15.8 µM [falling, partial curve]"
CCn1c2c(c(=O)n3ncc(C(=O)Nc4cc(Cl)ccc4C)c13)CN(Cc1ccc(OC)cc1)CC2,AC50,[1],"20 µM [falling, partial curve]"
O=C(NC1CCCCC1)c1ccc(S(=O)(=O)N2CCOCC2)cc1,AC50,[1],"39.8 µM [rising, single point]"
CCOc1ccc2oc(=O)cc(CN3CCN(c4cc(C)ccc4C)CC3)c2c1,AC50,[1],"20 µM [falling, partial curve]"
Cc1cccc(N2CCN(C(=O)C3CCN(S(=O)(=O)c4cccc5cccnc45)CC3)CC2C)c1 (stereo not drawn),AC50,[1],"6.31 µM [falling, partial curve]"
Cc1c(NC(=O)CSc2nncc3ccccc23)c(=O)n(-c2ccccc2)n1C,AC50,[1],"20 µM [falling, partial curve]"
O=C(Nc1ccc(S(=O)(=O)NC2CCCCC2)cc1)c1ccc(Br)o1,AC50,[1],"5.01 µM [falling, partial curve]"
O=C(CSc1nnc(Cn2nnc3ccccc32)o1)N(Cc1ccc(F)cc1)c1ccccc1,AC50,[1],"10 µM [falling, partial curve]"
Cc1c2cnn(-c3ccccc3)c(=O)c2c(C)n1CC(=O)NCCc1ccc(Cl)cc1,AC50,[1],"31.6 µM [falling, single point]"
COC(=O)C1CCN(C(=O)COC(=O)Cc2c[nH]c3ccccc23)CC1,AC50,[1],"12.6 µM [falling, partial curve]"
CCOC(=O)c1[nH]c2ccc(F)cc2c1NC(=O)CN1CCc2cc(OC)c(OC)cc2C1,AC50,[1],"10 µM [falling, partial curve]"
CC(=O)N1CCc2c(sc3c2c(=O)n(-c2ccccc2)c(=O)n3CC(=O)Nc2ccccc2)C1,AC50,[1],"15.8 µM [falling, partial curve]"
COc1cc(CNC(=O)c2ccc3c(c2)N(C)C(=O)C2CCCCN32)cc(OC)c1OC (stereo not drawn),AC50,[1],"10 µM [falling, partial curve]"
COc1ccccc1-c1nnc(SCC(=O)Nc2ccccc2F)o1,AC50,[1],"0.0501 µM [falling, full curve]"
Cc1nc2sc(C(c3ccco3)N3CCC(Cc4ccccc4)CC3)c(O)n2n1 (stereo not drawn),AC50,[1],"2 µM [falling, full curve]"
CCC1CN(C(=O)N2CCC(C(=O)N3CCN(c4cccc(C)c4C)CC3)CC2)c2ccccc2O1 (stereo not drawn),AC50,[1],"25.1 µM [falling, partial curve]"
Cc1ccc(Cl)cc1NC(=O)CCC(=O)N1CC(C)Sc2ccccc21 (stereo not drawn),AC50,[1],"25.1 µM [falling, single point]"
CC(=O)N1c2ccc(S(=O)(=O)NCC3CCC(C(=O)Nc4ccc(C)cc4)CC3)cc2CC1C (stereo not drawn),AC50,[1],"12.6 µM [falling, partial curve]"
COc1cccc2cc3c(=O)n(-c4ccccc4)nc-3oc12,AC50,[1],"0.00794 µM [falling, full curve]"
Cc1nc(C)c(C(=O)Nc2nc3c(C)cccc3s2)o1,AC50,[1],"15.8 µM [falling, partial curve]"
CCc1ccc(CNC(=O)c2ccc3c(c2)c(C)c(C)n3Cc2ccccc2)cc1,AC50,[1],"0.126 µM [rising, full curve, poor fit]"
COc1cccc2c1OC1(C)CC2NC(=O)N1c1cccc(C(=O)Nc2ccc3c(c2)OCCO3)c1 (stereo not drawn),AC50,[1],"2.51 µM [falling, full curve]"
O=C(NC1CCCCC1)c1ccc(CSc2nc3ccncc3n2Cc2cccc(F)c2)cc1,AC50,[1],"25.1 µM [falling, single point]"
Cc1ccc2cccc(SCC(=O)N3CCOCC3)c2n1,AC50,[1],"20 µM [rising, partial curve] [measured here: IkB-luc green channel]"
CSc1ncccc1C(=O)OCC(=O)Nc1cc(C(F)(F)F)ccc1N1CCOCC1,AC50,[1],"39.8 µM [falling, single point]"
COc1cc(C2Nc3ccc4ncccc4c3C3=C2C(=O)CCC3)ccc1O (stereo not drawn),AC50,[1],"31.6 µM [rising, partial curve] [measured here: IkB-luc green channel]"
CCc1nn(CC(=O)N2CCN(c3cccc(C)c3)C(C)C2)c(=O)c2cc3sccc3n12 (stereo not drawn),AC50,[1],"15.8 µM [falling, partial curve]"
COc1ccccc1C(=O)NC1(C(F)(F)F)NC(=O)N(CCc2ccccc2)C1=O (stereo not drawn),AC50,[1],"15.8 µM [falling, partial curve]"
O=C(CSc1nnc2scc(-c3ccc(Cl)cc3)n12)Nc1ccc(F)cc1,AC50,[1],"3.16 µM [falling, single point]"
Cc1nn(Cc2ccc(C(=O)NC3CCCCC3)o2)c(C)c1Br,AC50,[1],"20 µM [falling, partial curve]"
Cc1ccc(Nc2c(-c3cccnc3)nc3ccc(C)cn23)cc1,AC50,[1],"31.6 µM [falling, partial curve]"
COc1cccc(C2=CC(c3ccccc3F)n3ncc(C(=O)Nc4ccc(F)cc4)c3N2)c1 (stereo not drawn),AC50,[1],"15.8 µM [falling, partial curve]"
COc1cccc(NC(=O)CSc2cc(C)c3ccccc3n2)c1,AC50,[1],"7.94 µM [falling, full curve]"

# Random excerpt: four records from the list
compound,measurement,setting,value
O=C(NC1CCCCC1)c1ccc(S(=O)(=O)N2CCOCC2)cc1,AC50,[1],"39.8 µM [rising, single point]"
COc1cccc(NC(=O)CSc2cc(C)c3ccccc3n2)c1,AC50,[1],"7.94 µM [falling, full curve]"
O=C(CSc1nnc2scc(-c3ccc(Cl)cc3)n12)Nc1ccc(F)cc1,AC50,[1],"3.16 µM [falling, single point]"
Cc1ccccc1NC(=O)Cn1c(SCC(=O)Nc2ccc(F)cc2)nc2ccccc21,AC50,[1],"6.31 µM [falling, partial curve]"

# Source: PubChem BioAssay AID445 (National Center for Advancing Translational Sciences (NCATS), 2006)
